Assay results reported in paper PMC4315410, “A New PAMPA Model Proposed on the Basis of a Synthetic Phospholipid Membrane” (PLoS ONE, 2015).

Columns and labels:
Format in all cases: in vitro ADME
Settings in all cases: for Papp at 16 h: PAMPA, read-out: P e
[1] = PAMPA with synthetic phospholipid membrane, lauryl chain (C12)
[2] = PAMPA with synthetic phospholipid membrane, octyl chain (C8)
[3] = PAMPA with synthetic phospholipid membrane, decyl chain (C10)
Protocol: The PAMPA evolution instrument from pION Inc. was used in this study. In PAMPA, a “sandwich” structure was formed by a 96-well microtiter plate and a 96-well filter plate from Millipore (IPVH, 125 μm thick filter, 0.45 μm pore), then wetted with a 4 μl 2% w/v phospholipid compound solution in n-dodecane.
The stock solutions of the drug samples were prepared at 10 mM concentrations in DMSO and stored at 0°C before use. Before being added to a 96-well filter plate, the stock solution was diluted first with buffer to achieve a final sample concentration of 10∼50 μM and to reduce the DMSO concentration below 1% (v/v).
The PAMPA plate was filled with a 300 μl diluted drug solution to prepare the “donor” wells, and the 96-well filter plate containing a synthetic phospholipid membrane was then placed on the donor wells. The “acceptor” wells were filled with 200 μl of buffer solution and placed on top of the “sandwich”, and the PAMPA instruments were incubated at 25°C in a sealed and saturated humidity container for a specified time. After reaching the permeation time, the PAMPA plate sandwich was separated, and the amount of drugs in both the donor and acceptor compartments were measured by comparing the experimental spectra with the UV spectrum (220∼400 nm) obtained from reference standards.
The P e data for the test compounds were calculated using equation [28]: Pe=−2.303VaVd/(Va+Vd)A(t−t0)lg{1−(Va+Vd)Ca(t)/VdSCd(0)} where S=VaCa(t)/VdCd(0)+Cd(t)/Cd(0) Va is the acceptor well volume (i.e., 0.2 ml in this study), Vd is the donor well volume (i.e., 0.3 ml in this study), A is the filter area (i.e., 0.2826 cm^2 in this study), t0 is the steady-state time to fill the membrane (i.e., average 1140 s in this study), t is the permeation time, Ca(t) is the concentration of the drug in the acceptor well at time t, Cd(t) is the concentration of drug in the donor well at time t, and Cd(0) is the concentration of the drug in the donor well at the start of the experiment. The factor S was the fraction of samples remaining in the donor and the acceptor wells at time t.
The P e of each compound was measured at varying incubation times (4–20 h) and pH gradients (4.6–9.32). In the incubation time assays, the pH was 7.4 in both the donor and acceptor wells. In the pH-gradient assays, the pH of the drug solutions was varied using NaOH-treated universal buffer (pION Inc.) in the donor wells, and the pH in the acceptor solution was pH 7.4 [15]. In addition, the incubation time in the pH-gradient test assays was 16 h.

For `CC(C)NCC(O)COc1ccc(CC(N)=O)cc1` (stereo not shown) [Atenolol], the P e ([1]; C12, donor pH 8.2, acceptor pH 7.4, 16 h) was 3.5 ×10^–6 cm/s, the P e ([1]; C12, donor pH 9.32, acceptor pH 7.4, 16 h) was 4.4 ×10^–6 cm/s and the Papp at 16 h ([1]; C12, donor pH 6.57, acceptor pH 7.4, 16 h) was 3.3 ×10⁻⁶ cm/s. For the same molecule, the Papp at 16 h ([1]; pH 7.4, C12 membrane, incubation time 16 h, pH 7.4 donor and acceptor, 25°C) was 5.9 ± 0.5 ×10⁻⁶ cm/s, the P e ([2]; C8, donor pH 8.2, acceptor pH 7.4, 16 h) was 3.8 ×10^–6 cm/s and the Papp at 16 h ([2]; C8, donor pH 6.57, acceptor pH 7.4, 16 h) was 3 ×10⁻⁶ cm/s. The Papp at 16 h ([2]; C8, donor pH 9.32, acceptor pH 7.4, 16 h) was 4.4 ×10⁻⁶ cm/s, the Papp at 16 h ([2]; pH 7.4, C8 membrane, incubation time 16 h, pH 7.4 donor and acceptor, 25°C) was 3.8 ± 0.4 ×10⁻⁶ cm/s and the P e ([3]; C10, donor pH 9.32, acceptor pH 7.4, 16 h) was 4.4 ×10^–6 cm/s. For the same molecule, the Papp at 16 h ([3]; C10, donor pH 4.98, acceptor pH 7.4, 16 h) was 1.7 ×10⁻⁶ cm/s, the Papp at 16 h ([3]; C10, donor pH 6.57, acceptor pH 7.4, 16 h) was 3.2 ×10⁻⁶ cm/s and the Papp at 16 h ([3]; C10, donor pH 8.2, acceptor pH 7.4, 16 h) was 3.5 ×10⁻⁶ cm/s. The Papp at 16 h ([3]; pH 7.4, C10 membrane, incubation time 16 h, pH 7.4 donor and acceptor, 25°C) was 5.2 ± 0.4 ×10⁻⁶ cm/s.
